Reference: article PMC11549082
These are yes or no findings as the source states them, for the method shown. In cells and extracts the contact can be indirect. Some binding calls cover weakened binding; strength is not graded here.

Sequences of proteins named here, by UniProt entry; tags and fusion partners are left off. A change or cut given only in a name is not applied to a line headed by its entry.
UniProt Q9UH99: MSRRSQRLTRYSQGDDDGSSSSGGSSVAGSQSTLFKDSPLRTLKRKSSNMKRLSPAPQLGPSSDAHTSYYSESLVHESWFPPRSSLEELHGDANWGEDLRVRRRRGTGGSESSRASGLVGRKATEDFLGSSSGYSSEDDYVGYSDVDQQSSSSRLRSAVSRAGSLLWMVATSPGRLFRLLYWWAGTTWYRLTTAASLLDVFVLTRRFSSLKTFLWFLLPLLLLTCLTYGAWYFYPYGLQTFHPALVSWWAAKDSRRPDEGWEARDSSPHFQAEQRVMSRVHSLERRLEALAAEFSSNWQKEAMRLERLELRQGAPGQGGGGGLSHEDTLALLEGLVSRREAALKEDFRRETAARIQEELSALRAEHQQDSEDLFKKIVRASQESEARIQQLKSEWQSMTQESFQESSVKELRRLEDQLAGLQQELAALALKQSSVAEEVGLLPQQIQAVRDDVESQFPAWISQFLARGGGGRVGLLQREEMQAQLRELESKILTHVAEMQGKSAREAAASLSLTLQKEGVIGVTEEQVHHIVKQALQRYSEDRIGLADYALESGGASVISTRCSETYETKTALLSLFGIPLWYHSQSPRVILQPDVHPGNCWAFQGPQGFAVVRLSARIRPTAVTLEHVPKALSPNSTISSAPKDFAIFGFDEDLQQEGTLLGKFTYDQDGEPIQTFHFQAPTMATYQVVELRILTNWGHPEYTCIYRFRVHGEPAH
UniProt Q0GNC1: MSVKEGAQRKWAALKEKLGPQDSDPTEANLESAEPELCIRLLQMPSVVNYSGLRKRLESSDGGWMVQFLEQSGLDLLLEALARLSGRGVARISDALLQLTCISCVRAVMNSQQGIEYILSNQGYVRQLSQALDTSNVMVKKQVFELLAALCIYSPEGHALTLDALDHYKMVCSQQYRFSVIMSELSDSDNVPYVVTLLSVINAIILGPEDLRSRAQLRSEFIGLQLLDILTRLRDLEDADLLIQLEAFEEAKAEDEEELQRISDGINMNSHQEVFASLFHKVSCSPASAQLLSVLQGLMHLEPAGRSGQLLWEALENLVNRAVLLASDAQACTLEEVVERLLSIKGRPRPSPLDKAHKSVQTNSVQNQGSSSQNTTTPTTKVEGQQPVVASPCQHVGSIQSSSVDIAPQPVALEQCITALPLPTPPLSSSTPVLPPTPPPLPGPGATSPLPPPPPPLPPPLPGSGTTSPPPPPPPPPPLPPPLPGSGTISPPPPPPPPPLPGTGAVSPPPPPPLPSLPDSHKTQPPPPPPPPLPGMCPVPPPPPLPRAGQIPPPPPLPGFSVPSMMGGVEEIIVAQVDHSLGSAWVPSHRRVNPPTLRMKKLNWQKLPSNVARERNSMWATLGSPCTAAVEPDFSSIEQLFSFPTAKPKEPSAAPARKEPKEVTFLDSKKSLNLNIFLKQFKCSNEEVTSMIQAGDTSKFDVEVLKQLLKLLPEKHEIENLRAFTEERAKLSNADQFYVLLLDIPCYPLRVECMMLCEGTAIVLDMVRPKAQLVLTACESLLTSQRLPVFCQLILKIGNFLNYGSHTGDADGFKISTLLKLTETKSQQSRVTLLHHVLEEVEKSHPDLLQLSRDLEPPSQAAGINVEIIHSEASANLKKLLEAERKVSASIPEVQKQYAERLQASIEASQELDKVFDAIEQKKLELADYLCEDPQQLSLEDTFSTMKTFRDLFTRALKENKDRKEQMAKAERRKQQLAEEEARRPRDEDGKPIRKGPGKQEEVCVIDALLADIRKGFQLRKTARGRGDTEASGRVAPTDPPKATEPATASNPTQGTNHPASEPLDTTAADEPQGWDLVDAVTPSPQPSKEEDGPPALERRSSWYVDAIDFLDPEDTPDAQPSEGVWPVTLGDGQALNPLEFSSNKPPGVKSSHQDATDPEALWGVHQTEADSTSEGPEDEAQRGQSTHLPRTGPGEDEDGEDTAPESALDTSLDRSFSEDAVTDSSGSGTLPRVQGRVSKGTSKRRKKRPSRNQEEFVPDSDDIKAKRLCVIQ
UniProt Q27J81: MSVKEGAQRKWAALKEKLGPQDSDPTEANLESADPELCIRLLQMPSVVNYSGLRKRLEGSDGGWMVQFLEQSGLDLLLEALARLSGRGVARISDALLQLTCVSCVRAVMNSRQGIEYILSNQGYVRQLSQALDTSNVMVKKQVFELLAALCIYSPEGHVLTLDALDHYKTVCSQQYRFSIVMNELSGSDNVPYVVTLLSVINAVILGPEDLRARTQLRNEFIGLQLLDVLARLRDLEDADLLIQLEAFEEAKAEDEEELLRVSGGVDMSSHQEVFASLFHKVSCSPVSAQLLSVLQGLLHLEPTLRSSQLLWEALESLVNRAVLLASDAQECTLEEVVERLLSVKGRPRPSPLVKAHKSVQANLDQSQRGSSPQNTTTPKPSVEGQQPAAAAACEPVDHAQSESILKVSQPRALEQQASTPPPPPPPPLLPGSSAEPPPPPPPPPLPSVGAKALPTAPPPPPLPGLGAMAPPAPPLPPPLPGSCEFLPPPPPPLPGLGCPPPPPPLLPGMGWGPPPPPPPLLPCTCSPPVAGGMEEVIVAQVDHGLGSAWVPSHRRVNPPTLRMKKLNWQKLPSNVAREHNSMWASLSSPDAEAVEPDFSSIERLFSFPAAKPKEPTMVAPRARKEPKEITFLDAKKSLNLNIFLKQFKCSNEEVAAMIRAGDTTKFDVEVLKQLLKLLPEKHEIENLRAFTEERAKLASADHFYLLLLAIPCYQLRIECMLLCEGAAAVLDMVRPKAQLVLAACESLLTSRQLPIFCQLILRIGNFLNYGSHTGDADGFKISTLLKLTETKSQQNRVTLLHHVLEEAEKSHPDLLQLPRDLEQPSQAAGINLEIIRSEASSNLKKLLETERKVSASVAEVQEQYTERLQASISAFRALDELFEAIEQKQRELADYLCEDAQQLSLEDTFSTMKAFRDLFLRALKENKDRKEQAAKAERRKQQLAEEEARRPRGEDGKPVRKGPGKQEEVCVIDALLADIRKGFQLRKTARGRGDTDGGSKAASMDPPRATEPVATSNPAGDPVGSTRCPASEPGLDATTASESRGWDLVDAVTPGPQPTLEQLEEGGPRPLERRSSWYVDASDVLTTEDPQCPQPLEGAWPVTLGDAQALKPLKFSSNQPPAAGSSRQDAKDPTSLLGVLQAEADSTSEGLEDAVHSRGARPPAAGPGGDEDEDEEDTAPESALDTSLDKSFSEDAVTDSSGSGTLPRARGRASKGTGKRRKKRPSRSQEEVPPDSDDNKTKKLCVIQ

Columns and labels:
[1] = target: T1, SUN2 (endogenous, NIH3T3 cells) (mouse (endogenous in NIH3T3)) (UniProt Q8BJS4); test: proximity ligation; Duolink PLA on endogenous proteins in NIH3T3 cells, pre-extracted in CSK buffer and fixed in ethanol; cells untreated, 1 µM A23187 for 1 min, pre-treated with 10 µM BAPTA-AM for 30 min, or siSUN2; mouse anti-SUN2 with a rabbit antibody to the partner
T1 sequence: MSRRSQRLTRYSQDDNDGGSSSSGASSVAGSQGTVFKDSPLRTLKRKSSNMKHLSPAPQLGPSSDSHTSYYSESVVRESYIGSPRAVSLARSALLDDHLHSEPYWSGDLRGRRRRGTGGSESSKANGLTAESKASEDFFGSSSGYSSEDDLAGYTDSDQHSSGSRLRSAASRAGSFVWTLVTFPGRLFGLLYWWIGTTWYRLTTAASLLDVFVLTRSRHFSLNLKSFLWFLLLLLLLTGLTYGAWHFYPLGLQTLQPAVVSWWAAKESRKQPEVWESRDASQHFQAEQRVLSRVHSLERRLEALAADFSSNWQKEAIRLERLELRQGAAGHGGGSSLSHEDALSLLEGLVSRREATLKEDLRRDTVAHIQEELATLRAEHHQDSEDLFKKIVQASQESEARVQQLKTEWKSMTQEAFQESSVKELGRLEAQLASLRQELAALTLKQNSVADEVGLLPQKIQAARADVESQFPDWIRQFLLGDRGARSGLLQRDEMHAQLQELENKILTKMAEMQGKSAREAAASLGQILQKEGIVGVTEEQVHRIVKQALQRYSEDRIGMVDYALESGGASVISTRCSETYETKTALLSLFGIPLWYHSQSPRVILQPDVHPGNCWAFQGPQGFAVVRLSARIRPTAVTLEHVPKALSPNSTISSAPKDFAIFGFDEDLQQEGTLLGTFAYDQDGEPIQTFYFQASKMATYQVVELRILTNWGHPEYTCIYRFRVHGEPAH

[2] = target: hSUN2-FLAG (human SUN2 with a C-terminal FLAG tag) (human) (UniProt Q9UH99); test: co-IP; HEK293T cells transfected separately with hSUN2-FLAG or INF2-CAAX; lysates mixed and incubated with anti-FLAG M2 beads 150 min at 4 °C; Co-IP buffer 20 mM Tris pH 7.5, 150 mM NaCl, 5 mM CaCl2, 1% glycerol, 1% NP-40, 0.05% SDS; INF2 detected by immunoblot with anti-INF2

Row | binding [1] | binding [2] | Substance
1 | binds | – | INF2 (inverted formin 2; endogenous, NIH3T3 cells) (from UniProt Q0GNC1 1-1273)
2 | – | binds | human INF2-CAAX (inverted formin 2, prenylated CAAX splice variant) (from UniProt Q27J81 1-1249)
